Measurements reported in article PMC3907802.
No constants are given. Whether binding was seen depends on the method and setting. In cells and extracts the contact can be indirect. Some binding calls cover weakened binding; strength is not graded here.

Target: T1, OTUD4 (endogenous, HCT116 cells) (human (endogenous in HCT116)) (UniProt Q01804)
T1 sequence: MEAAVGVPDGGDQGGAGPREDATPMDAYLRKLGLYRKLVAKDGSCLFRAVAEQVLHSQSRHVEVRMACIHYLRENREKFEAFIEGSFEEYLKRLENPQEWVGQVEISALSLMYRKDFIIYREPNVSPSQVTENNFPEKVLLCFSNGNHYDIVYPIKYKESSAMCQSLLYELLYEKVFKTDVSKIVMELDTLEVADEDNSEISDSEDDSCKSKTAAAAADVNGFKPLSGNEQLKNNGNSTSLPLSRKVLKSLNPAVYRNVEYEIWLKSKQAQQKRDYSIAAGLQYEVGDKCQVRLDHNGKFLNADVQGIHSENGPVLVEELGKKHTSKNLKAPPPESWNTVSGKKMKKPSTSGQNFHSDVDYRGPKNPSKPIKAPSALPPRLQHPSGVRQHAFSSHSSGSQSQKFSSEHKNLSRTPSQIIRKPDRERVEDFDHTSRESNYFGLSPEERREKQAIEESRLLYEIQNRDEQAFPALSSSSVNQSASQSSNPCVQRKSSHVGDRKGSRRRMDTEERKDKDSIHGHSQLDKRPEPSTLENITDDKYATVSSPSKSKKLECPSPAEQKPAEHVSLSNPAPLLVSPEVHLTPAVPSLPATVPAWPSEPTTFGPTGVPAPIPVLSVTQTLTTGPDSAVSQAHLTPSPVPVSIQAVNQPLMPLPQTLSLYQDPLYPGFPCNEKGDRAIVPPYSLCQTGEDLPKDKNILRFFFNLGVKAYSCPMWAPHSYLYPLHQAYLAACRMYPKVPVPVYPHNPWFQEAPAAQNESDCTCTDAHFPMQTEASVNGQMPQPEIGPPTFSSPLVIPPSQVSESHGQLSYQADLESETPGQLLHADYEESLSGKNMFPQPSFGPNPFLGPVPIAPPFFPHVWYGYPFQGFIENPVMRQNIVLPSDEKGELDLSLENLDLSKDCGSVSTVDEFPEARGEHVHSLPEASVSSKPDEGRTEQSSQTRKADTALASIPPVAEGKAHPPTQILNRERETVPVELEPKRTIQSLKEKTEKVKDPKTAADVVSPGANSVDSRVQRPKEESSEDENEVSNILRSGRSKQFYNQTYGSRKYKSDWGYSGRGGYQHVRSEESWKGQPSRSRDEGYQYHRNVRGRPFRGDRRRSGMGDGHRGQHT
Test: co-IP; HCT116 cell extracts incubated with no antibody, an XPC antibody or an anti-OTUD4 antibody; protein A/G beads; Western blot with an XPC antibody

- binding: binds
Substance: XPC (endogenous, HCT116 cells) (from UniProt Q01831 1-940)
